Among the test systems are C14orf172 (human); C15orf38 (human); C15orf41 (human); C16orf13 (human); C16orf30 (human); C16orf74 (human); C17orf56 (human); C19orf12 (human); C1orf119 (human); C1orf162 (human).
Assay in all cases: protein microarray (ProtoArray v5.0), streptavidin-Alexa Fluor 647
Common to all, as to details: 3'-biotin; 20 mM Tris (pH 7.5), 5 mM MgCl2, 100 mM KCl, 0.1% Tween-20, A/T-rich and random oligonucleotide blockers; temperature not stated; high values mean tight binding

The list shows a part of the results.

For the sequence “GGTGACAGGGGTATGGGGAGGGG [G4-2 biotinylated (Ct1)]”, the binding signal with C14orf172 (human) is -0.361 z-score; with C15orf38 (human), -0.365 z-score; in the assay on C15orf41 (human) it was -0.383 z-score; in the assay with C16orf13 (human), -0.382 z-score; in the assay on C16orf30 (human), -0.392 z-score; in the assay on C16orf74 (human), -0.385 z-score. In addition, the binding signal was -0.386 z-score in the assay on C17orf56 (human), -0.401 z-score in the assay on C19orf12 (human), -0.359 z-score with C1orf119 (human) and -0.377 z-score in the assay with C1orf162 (human).
